Drawing on the RNAGym collection of RNA variant scans (doi:10.1126/science.aae0568), this text covers yeast fitness for 38 variants.

The chains are these.
B1: tRNA (parent)
chain: GUUCCGUUGGCGUAAUGGUAACGCGUCUCCCUCCUAAGGAGAAGACUGCGGGUUCGAGUCCCGUACGGAACG

Variants at the floor of the assay are shown more often than the library holds them.

In the series the parent is B1. Put plainly: yeast fitness relative to wild type (ratio to wild type); higher = fitter; tRNA-Arg(CCU), competitive growth, 37 C, YPD. Summed up:
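Changes in genotype frequencies gave Darwinian fitness relative to wild type. Frequencies were read by 100-nucleotide paired-end sequencing of gene amplicons before and after pooled Saccharomyces cerevisiae strains, carrying tRNA-Arg(CCU) gene variants at the native locus, were competed in YPD at 37°C for 24 hours in six replicates. A genotype was kept only with ≥ 100 starting reads, and estimates < 0.5 were set to 0.5.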
In the case of GUUCCGUUGGCGUUAUAGUAACCCGUCUUCCUCGUAAGGAGAAGCCUGCGGGUGCAAGUCCCGUACGGAACG [A14U G17A G23C C29U C34G A45C U54G G56A], the yeast fitness is at most 0.5.
For GUUCCGUUGGCGUAAUGGUAACGCGUUUCCCUCCUAAGGAGAAGACUGCGGGUUCGGGUCCCGUACGGGACG [C27U A57G A69G] the value was at most 0.5; for GUUCCGUUGGCGUAAUGGUAACGCGUCUCCGUCCUAAGGAGAAAACUGCGCGUUCGAGUCCCGUGCGGAACG [C31G G44A G51C A65G], 0.537; for GUUCCGUUGGGGUGAUAGUAACGCGUCUCCCUCCUAAGGAGAAGACUGCGGGUUCGAGUCCCGUACGGAACG [C11G A14G G17A], at most 0.5.
Regarding GUUCCGUAGGCAUCAUGGUAACGCGUCUCCCUCCUAAGGAGAAGACUGCGGGUUCGAGUCCCGUACGGAACG [U8A G12A A14C], the yeast fitness is at most 0.5.
The same measure for GUUCCGUUGGCGUAAUGGUGACGCGUCUUCCUCUUAAGGAGAAGACUGCAGGUUGGAGUCCCGUAAGGAACG [A20G C29U C34U G50A C55G C66A]: at most 0.5.
The same measure for GUUCCCUUGGCGUCAUGGUAACGCGUCUCCCUCCUAAGGAGAAGACUGUGGGUUCGAGUCCCGUACGGAACG [G6C A14C C49U]: at most 0.5; for GUUCCGUUGGCGUAAUGGUAACGCGUUUCCCUCCUAAGCAGGAGACUGCGGGUUCGAGUCCCGUACGGAACG [C27U G39C A42G]: at most 0.5; for GUUCCGUUGACGUAAUGGUGAAGCGUCUCGCUCCUAAGGAGAAGUCUGCGGGUUCGAGUUCCGUACGGAACG [G10A A20G C22A C30G A45U C60U]: at most 0.5.
GUUCGGUUCGCGUAAUGGUAACGCGUCUCCUUCCUAAGGAGAAGUCUGCGGGUUCCAGUCCCCUACCGAACG [C5G G9C C31U A45U G56C G63C G67C]: the yeast fitness was at most 0.5.
Turning to GUUCCGUUGAAGUACUGGUAACGAGUCUCCCUCAUAAGGAGAAGAGUGCGGGUUCGAGUUGCGUACAGAACG [G10A C11A A15C C24A C34A C46G C60U C61G G67A], the yeast fitness was at most 0.5.
The same measure for GUUCCGUUGGCGUAGUGGUAGCGCGUCUCCCUCCUAAGGAGAAGACUGCGGGUGUGAGUCCCGUACGGAACG [A15G A21G U54G C55U]: at most 0.5; for GUACCGUUGGGAUAAUGGUAAUGCGUCUCCCUCCUAAGAAGAAGACUGCGGGUUCGAGUCCCGAACGGAACG [U3A C11G G12A C22U G39A U64A]: at most 0.5; for GAUCCGUUGGCGUAAUGGUAACGCGUCUCCCUCCUAACGAGAAGACUGCGGGUUCGAGUCCCGUCCGGAACG [U2A G38C A65C]: at most 0.5.
On to GUUCCGUGGGCGUAAUGGUAACGCGUCUCCCUCCUAAGGAAAAGACUGCGGGUUCGAGUGCCGUACGGAACG [U8G G41A C60G], for which the yeast fitness is at most 0.5.
For GUUCCGUUAGAGUAAUGGUUACACGUCUCCCUCCUAAGGAGAAGACUGCGAGUUCGAGUCCCGUACGGAACG [G9A C11A A20U G23A G51A] the value was at most 0.5; for GUUCCGUUGGCGUUAUGGUAACGCGUCUGCCUCCUAAGGAGAAGACUGCGGGUUCGAGUCCCGUUCGGAACG [A14U C29G A65U], at most 0.5; for GUUCCGUUGGCGUAAUGGUAACGCGUCUCCCUCCUAAGGGGAAAACUGCGGGUUCGAGUCCAGUACGGAACG [A40G G44A C62A], at most 0.5.
The same measure for GUUCCGUUGGCGUAAUGGCAACGUGUCUCCCCCCCACGGAGAAGGCUGCGGGUUCGCGUCCCGUACGGAACG [U19C C24U U32C U35C A37C A45G A57C]: at most 0.5.
For GUUCCGUUGGCGGAAUGGUUACGCGUCCCCCUCCUAAGGAGAAGACUGCGGGUUCGAGACCCGUACGGAACG [U13G A20U U28C U59A], the yeast fitness was at most 0.5.
For GUUCUGUUGGCGUAAUGGUAAUGCGUCUCGCUCCUAAGGAGAAGACUGCGGGUUCGACUCCCGUACGGAACG [C5U C22U C30G G58C] the value was at most 0.5; for GUUCCGUUGGCGUUAGGGUAACGCGUCUCCCUGCUAAGGAGAAGACUGCAGGUUCGACUCCCCUACGGAACG [A14U U16G C33G G50A G58C G63C], at most 0.5.
The same measure for GUUCCGUUGGCGUAAUGGUAACGCGUCUUCCUCCUAAGGAGAAGACUGCGGGUUCGAGUCCCGUACUGUACG [C29U G67U A69U]: at most 0.5.
On to GUUCCGUUGGCGUAAUGGUAUCGCGUCUCCGUCCUAAGGAGAAGCCUGCGGGUUCGAGUCCCGUACGGAACG [A21U C31G A45C], for which the yeast fitness was at most 0.5.
For the variant GUUCCGUUGGCGUAAUGGUAAGGCGUCUCCCUCCUAAGGAGAAGACUGAGGGUUCGAGUCCCGUACGGAACG [C22G C49A], the yeast fitness was 0.682.
Turning to GUUCCGUUGGCGUAAUGGUAACGAGUAUCCCUCCUAAGGAGGAGACUGCGGGUUCGAGUCCCGUACGGAACG [C24A C27A A42G], the yeast fitness is at most 0.5.
The same measure for GUUCCGUUGGCGUAAUGGUAACGCGUCUCCCUCCUAAGGAGAAGUCUGAGGCUUCAAGUCCCGUACGGGACG [A45U C49A G52C G56A A69G]: at most 0.5.
For GUUCCGUUGGCAUAAUGGUAACGAGUCUCCCUCCUAAGGAGAAGGCUGCAGGUUCGAGUCCCGUACGGAACG [G12A C24A A45G G50A], the yeast fitness is at most 0.5.
For GUUCCGUUGGCGUAAUGGUGACGAGUAUCUCUCCUAAGGAGAAGACUGCGGGUUCGAGUCCCGUACGGCACG [A20G C24A C27A C30U A69C], the yeast fitness is at most 0.5.
Take GUACCGUAGGCGUAAUGGUAACGCGUCUCCCUCCUAAGGAGCAGACUGCGGCUUCGAGUCCCGUACGGAACG [U3A U8A A42C G52C]: the yeast fitness was at most 0.5.
Consider GUUGCGUUGGCGUAAUGGUAACGCGUCUGCCUCCUAAGGAAAAGACUGCGGGUUCGAGUCCCGUACGGAACG [C4G C29G G41A], for which the yeast fitness was at most 0.5.
For GUUCCGUUGGCGUAAUGGUAACACGUCUCCCUCCUCAAGAGAAGACUGCGGGUUCGAGUGCGGUACGGAACG [G23A A36C G38A C60G C62G], the yeast fitness is at most 0.5.
Consider GUUCCGUAGGCGUAAUGGUAACGGGUCUCCGUCCUAAGGAGAAGACUGCGGGUUCGAGUCGCGUACGGAACG [U8A C24G C31G C61G], for which the yeast fitness was at most 0.5.
For GUUCCGUUGGCGUAAUGGUUACGCGUCUCCCUCCUCAGGAGAUGACCGCGGGUUCGAGUCCCGUGCGGAACG [A20U A36C A43U U47C A65G] the value was at most 0.5.
The same measure for GUUCCGUUGGCGAAAUGGUACCGCGUCUCCCUCCCAAGAAGCGGAUUGCGGGUUCGAGUCCCGUCCGGAACG [U13A A21C U35C G39A A42C A43G C46U A65C]: 0.55; for GUUCCAUUGGCGUAAUGGUUACGCGUCUCCCUCCUAAGGAGAAGACUGCGGCUUCGAGUCCCCUACGGUACG [G6A A20U G52C G63C A69U]: at most 0.5.
GUUCCGAUGGCGUAAUGGUAACGCGUCUCCCUCGUAAGGAGAAGACUGCGGGAUCGAGUCCCGUACGGAUCG [U7A C34G U53A A70U]: the yeast fitness was at most 0.5.
For GUUCCGUUGGCGUAAUGGUAACGCGUCUCCCUCCUAAGGAGGAGACUGGGGGUUCGAGUCCCGUACGGAACG [A42G C49G] the value was 0.767.
